Data as given in PubChem BioAssay AID1259273 (Sanger Institute, 2017)
Assay: 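Kinases whose loss is synthetic lethal with BYL719, cetuximab or trametinib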 (follow-up of hits). System: human NCI-H630 colorectal cancer cells. Reagents: single siRNA against human genes. Conditions: anchor drugs BYL719 at 1 µM, cetuximab at 5 µg/ml or trametinib at 10 nM, or DMSO vehicle alone. Measurement: 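Replicate-averaged viability scaled to non-targeting control pool wells, plus per-drug synergy scores comparing knock-down with drug to knock-down only and drug only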. Scale: synergy score with trametinib and synergy score with BYL719 and synergy score with cetuximab: higher = stronger synergy, more synthetic lethal; viability with trametinib: higher = more viable cells with knock-down plus drug; viability, vehicle only: higher = more viable cells after knock-down. Call rule: 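a duplex counts as synthetic lethal if its averaged synergy score exceeds 0.10 with BYL719, cetuximab or trametinib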.
The deposit covers 160 reagents; this is an unselected part. Over the whole deposit, 36 (22%) got an active call. 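Four distinct siRNA duplexes per gene; each call applies to one duplex and is not gene-level validation across cell lines.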 A number with no mark means an inactive call. The numbers tell different reagents against one gene apart. No viability above 1 is reported: the scale is capped. No sequences are given here. Not given: the amount of reagent, the time to read-out.

The first 3 records as a preview:
no.	gene knocked down	siRNA no.	synergy score with trametinib	synergy score with BYL719	synergy score with cetuximab	viability with trametinib (fraction of control)	viability, vehicle only (fraction of control)
1	STK36 (GeneID 27148)	1	0.115 (active)	-0.112	-0.104	0.651	0.854
2	STK36 (GeneID 27148)	2	-0.0976	-0.146	-0.23	0.994	1
3	STK36 (GeneID 27148)	3	0.0608	-0.177	-0.00689	0.803	0.964

The listing, repeating the preview:
no.	gene knocked down	siRNA no.	synergy score with trametinib	synergy score with BYL719	synergy score with cetuximab	viability with trametinib (fraction of control)	viability, vehicle only (fraction of control)
1	STK36 (GeneID 27148)	1	0.115 (active)	-0.112	-0.104	0.651	0.854
2	STK36 (GeneID 27148)	2	-0.0976	-0.146	-0.23	0.994	1
3	STK36 (GeneID 27148)	3	0.0608	-0.177	-0.00689	0.803	0.964
4	STK36 (GeneID 27148)	4	-0.0426	-0.0735	-0.218	0.939	1
5	CDKN2D (GeneID 1032)	1	0.0344	-0.154	0.0584	0.781	0.91
6	CDKN2D (GeneID 1032)	2	0.102 (active)	0.0354	0.0742	0.533	0.708
7	CDKN2D (GeneID 1032)	3	0.15 (active)	-0.113	-0.0763	0.747	1
8	CDKN2D (GeneID 1032)	4	0.197 (active)	0.181	0.0173	0.645	0.939
9	MAPK4 (GeneID 5596)	1	-0.103	-0.146	-0.135	1	1
10	MAPK4 (GeneID 5596)	2	-0.0495	-0.143	0.0103	0.946	1
11	MAPK4 (GeneID 5596)	3	-0.0224	-0.146	-0.015	0.919	1
12	MAPK4 (GeneID 5596)	4	-0.0214	-0.0646	-0.0334	0.693	0.749
13	GUCY2D (GeneID 3000)	1	0.0642	-0.138	0.018	0.832	1
14	GUCY2D (GeneID 3000)	2	0.151 (active)	0.0235	0.0108	0.745	1
15	GUCY2D (GeneID 3000)	3	0.171 (active)	0.0129	-0.103	0.52	0.771
16	GUCY2D (GeneID 3000)	4	0.0631	-0.0857	-0.23	0.833	1
17	MAP3K8 (GeneID 1326)	1	-0.103	-0.146	-0.23	1	1
18	MAP3K8 (GeneID 1326)	2	0.00408	-0.112	0.0141	0.78	0.875
19	MAP3K8 (GeneID 1326)	3	-0.0483	-0.114	-0.0452	0.92	0.972
20	MAP3K8 (GeneID 1326)	4	-0.0847	-0.0611	0.0354	0.981	1
21	NR2F2 (GeneID 7026)	1	0.103 (active)	-0.0931	-0.154	0.793	1
22	NR2F2 (GeneID 7026)	2	-0.103	-0.146	-0.23	1	1
23	NR2F2 (GeneID 7026)	3	-0.017	-0.127	-0.23	0.914	1
24	NR2F2 (GeneID 7026)	4	0.0294	-0.0244	-0.114	0.728	0.844
25	MARK3 (GeneID 4140)	1	0.0871	-0.127	-0.0508	0.798	0.987
26	MARK3 (GeneID 4140)	2	0.0356	-0.156	-0.0598	0.822	0.957
27	MARK3 (GeneID 4140)	3	0.177 (active)	-0.146	-0.0283	0.719	1
28	MARK3 (GeneID 4140)	4	0.00478	-0.146	-0.142	0.892	1
29	CHD4 (GeneID 1108)	1	0.198 (active)	0.0381	-0.07	0.591	0.88
30	CHD4 (GeneID 1108)	2	-0.00418	-0.181	-0.0031	0.676	0.75
31	CHD4 (GeneID 1108)	3	-0.00807	-0.115	-0.075	0.854	0.944
32	CHD4 (GeneID 1108)	4	-0.103	-0.146	-0.23	1	1
33	ACVR1 (GeneID 90)	1	-0.103	-0.146	-0.23	1	1
34	ACVR1 (GeneID 90)	2	0.0257	-0.146	-0.153	0.871	1
35	ACVR1 (GeneID 90)	3	-0.103	-0.146	-0.23	1	1
36	ACVR1 (GeneID 90)	4	-0.0241	-0.245	-0.139	0.816	0.884
